Assay results published in publication doi:10.1101/2024.03.04.582938.
These are yes or no findings as the source states them, for the method shown. In cells and extracts the contact can be indirect. Some binding calls cover weakened binding; strength is not graded here.

Sequences of proteins named here, by UniProt entry; tags and fusion partners are left off. Residues count along the entry.
UniProt P98161, residues 24-4303: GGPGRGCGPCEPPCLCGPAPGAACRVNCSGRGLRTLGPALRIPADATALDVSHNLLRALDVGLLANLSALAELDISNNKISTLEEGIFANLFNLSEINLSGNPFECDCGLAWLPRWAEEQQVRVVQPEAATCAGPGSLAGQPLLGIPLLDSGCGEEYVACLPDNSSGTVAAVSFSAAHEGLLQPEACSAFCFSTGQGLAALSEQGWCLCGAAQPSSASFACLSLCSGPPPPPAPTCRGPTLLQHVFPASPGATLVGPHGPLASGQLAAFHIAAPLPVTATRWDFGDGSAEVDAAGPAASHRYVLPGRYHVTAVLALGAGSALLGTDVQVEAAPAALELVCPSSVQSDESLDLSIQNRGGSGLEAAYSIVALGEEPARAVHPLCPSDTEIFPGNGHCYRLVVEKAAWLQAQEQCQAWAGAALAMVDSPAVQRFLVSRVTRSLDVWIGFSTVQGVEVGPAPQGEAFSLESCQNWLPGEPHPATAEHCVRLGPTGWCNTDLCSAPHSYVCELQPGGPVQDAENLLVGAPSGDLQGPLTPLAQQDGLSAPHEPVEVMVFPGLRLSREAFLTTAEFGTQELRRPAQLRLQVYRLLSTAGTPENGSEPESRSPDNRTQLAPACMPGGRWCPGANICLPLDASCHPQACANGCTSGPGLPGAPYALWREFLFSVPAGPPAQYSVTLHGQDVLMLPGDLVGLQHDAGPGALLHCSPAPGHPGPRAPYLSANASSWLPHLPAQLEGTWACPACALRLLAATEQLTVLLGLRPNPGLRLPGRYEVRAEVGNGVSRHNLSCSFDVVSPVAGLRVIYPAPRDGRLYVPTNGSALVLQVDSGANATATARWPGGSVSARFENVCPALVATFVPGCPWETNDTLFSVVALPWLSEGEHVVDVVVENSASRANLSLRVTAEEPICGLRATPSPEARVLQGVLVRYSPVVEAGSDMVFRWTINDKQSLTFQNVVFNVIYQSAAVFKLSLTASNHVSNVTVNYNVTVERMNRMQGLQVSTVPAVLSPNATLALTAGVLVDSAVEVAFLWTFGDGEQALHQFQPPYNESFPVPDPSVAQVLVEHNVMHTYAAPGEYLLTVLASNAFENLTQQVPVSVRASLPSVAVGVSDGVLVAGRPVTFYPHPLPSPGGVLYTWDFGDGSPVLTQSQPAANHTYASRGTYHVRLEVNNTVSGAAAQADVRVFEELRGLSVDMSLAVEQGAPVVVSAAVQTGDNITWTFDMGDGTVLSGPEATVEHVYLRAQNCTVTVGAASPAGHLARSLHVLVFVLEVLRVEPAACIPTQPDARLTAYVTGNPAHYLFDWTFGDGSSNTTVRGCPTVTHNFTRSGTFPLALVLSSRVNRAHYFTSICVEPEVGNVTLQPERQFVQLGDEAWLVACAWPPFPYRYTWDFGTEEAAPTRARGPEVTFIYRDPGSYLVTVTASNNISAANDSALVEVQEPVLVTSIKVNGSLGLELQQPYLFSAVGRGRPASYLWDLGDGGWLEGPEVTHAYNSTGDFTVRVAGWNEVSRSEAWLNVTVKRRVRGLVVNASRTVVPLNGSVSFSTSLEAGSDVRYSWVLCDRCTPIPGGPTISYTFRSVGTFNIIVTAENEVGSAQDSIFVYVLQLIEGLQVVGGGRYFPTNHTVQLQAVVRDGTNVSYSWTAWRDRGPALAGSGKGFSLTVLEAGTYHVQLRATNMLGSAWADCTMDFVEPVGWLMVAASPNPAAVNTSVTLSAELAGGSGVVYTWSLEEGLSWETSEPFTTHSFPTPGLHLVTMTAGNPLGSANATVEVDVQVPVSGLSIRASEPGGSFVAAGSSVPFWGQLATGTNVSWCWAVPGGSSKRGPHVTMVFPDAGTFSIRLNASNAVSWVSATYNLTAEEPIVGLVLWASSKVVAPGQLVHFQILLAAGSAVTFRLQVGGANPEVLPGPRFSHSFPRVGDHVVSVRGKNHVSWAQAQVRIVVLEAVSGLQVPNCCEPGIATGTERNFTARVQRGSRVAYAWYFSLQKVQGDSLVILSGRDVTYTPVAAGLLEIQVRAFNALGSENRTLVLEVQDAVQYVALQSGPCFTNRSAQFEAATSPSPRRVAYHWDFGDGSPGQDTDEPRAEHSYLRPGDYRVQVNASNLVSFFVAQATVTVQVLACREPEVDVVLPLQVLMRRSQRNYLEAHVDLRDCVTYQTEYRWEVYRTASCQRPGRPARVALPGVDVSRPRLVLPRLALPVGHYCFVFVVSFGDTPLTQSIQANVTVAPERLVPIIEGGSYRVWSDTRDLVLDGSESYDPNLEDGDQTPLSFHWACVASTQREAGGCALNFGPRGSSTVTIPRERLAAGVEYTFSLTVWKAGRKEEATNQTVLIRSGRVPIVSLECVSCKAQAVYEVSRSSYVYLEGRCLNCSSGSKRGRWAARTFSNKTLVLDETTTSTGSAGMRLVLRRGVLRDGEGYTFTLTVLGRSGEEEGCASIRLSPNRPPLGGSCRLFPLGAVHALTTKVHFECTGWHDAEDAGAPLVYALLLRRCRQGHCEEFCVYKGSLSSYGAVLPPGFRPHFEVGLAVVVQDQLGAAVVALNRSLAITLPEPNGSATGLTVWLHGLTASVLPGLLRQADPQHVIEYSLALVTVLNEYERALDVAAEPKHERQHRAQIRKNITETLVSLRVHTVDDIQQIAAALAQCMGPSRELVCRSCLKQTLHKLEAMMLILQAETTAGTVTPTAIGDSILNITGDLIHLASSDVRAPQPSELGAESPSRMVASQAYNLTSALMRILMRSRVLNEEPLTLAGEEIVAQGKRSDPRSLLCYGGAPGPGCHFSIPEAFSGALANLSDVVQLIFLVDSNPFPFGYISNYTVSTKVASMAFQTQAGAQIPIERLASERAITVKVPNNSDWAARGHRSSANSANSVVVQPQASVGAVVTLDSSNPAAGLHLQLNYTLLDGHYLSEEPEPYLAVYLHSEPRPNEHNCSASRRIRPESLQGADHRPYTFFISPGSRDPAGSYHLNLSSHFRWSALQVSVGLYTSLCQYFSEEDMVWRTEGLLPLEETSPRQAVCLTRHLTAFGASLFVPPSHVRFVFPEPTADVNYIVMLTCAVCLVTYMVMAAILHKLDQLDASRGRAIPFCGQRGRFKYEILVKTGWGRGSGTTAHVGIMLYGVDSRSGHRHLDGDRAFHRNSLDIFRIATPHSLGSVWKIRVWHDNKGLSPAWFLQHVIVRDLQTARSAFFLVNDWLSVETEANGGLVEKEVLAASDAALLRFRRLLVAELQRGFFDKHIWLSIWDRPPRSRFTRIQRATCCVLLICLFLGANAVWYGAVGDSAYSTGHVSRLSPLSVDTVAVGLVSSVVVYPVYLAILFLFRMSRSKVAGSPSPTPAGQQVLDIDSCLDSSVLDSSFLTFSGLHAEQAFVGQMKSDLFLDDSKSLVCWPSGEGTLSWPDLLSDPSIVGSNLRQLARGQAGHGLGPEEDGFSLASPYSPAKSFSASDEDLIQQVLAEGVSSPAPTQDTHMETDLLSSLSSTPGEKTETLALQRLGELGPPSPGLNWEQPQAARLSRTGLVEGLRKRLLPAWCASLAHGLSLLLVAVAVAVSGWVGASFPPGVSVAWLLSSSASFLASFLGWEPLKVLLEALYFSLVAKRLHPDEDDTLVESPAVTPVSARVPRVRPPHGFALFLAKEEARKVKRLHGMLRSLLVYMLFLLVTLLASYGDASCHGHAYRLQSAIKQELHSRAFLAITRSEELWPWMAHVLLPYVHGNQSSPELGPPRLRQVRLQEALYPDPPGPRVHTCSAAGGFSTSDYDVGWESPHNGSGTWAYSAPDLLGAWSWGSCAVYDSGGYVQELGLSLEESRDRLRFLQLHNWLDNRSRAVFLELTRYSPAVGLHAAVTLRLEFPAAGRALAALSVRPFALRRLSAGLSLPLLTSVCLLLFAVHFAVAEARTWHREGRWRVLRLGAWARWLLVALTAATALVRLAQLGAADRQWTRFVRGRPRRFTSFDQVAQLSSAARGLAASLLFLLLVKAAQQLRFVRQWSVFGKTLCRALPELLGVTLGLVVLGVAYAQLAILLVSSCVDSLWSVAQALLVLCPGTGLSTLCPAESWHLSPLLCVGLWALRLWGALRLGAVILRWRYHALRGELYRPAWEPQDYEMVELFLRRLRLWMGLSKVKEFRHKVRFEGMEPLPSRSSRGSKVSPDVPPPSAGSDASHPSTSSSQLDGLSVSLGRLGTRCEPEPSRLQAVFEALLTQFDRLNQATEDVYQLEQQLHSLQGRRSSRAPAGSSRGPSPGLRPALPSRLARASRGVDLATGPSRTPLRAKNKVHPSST
UniProt Q9UBS4, residues 23-358: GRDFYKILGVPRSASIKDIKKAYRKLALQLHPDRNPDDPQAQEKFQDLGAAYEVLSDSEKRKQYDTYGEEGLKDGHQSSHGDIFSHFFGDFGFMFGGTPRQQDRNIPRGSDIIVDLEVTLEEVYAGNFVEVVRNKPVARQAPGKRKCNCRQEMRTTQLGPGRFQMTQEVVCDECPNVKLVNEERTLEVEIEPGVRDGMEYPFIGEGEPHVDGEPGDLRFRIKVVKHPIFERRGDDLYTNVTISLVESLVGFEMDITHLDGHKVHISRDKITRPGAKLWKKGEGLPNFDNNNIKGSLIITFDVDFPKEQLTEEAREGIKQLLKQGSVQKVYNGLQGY

Target: FLAG-tagged polycystin-1 (PC1) (UniProt P98161)
Test: co-IP

“DNAJB11 (endogenous, HEK 293T) (from UniProt Q9UBS4 23-358)” was tested, and the binding was “binds”.
